For some assays here: The exact form of at least one protein or probe is not confirmed. For some assays here: Where a protein sequence is shown, tags need not be part of it.
Key:
[1] = target: FnuDI methylase (UniProt P34906); assay: activity in cells; details: genomic DNA resistant to StuI; GGCC, 5mC type; protein in cells; protein details: pACYC184fnuDIM in E. coli; only the site is given
[2] = tested on: T1, StuI methylase (M.StuI, stuIM) (Streptomyces tubercidicus); assay: activity in cells; details: pST2 plasmid resistant to StuI digestion; unmodified PCR product is cleaved; protein in cells; only the site is given
T1 sequence: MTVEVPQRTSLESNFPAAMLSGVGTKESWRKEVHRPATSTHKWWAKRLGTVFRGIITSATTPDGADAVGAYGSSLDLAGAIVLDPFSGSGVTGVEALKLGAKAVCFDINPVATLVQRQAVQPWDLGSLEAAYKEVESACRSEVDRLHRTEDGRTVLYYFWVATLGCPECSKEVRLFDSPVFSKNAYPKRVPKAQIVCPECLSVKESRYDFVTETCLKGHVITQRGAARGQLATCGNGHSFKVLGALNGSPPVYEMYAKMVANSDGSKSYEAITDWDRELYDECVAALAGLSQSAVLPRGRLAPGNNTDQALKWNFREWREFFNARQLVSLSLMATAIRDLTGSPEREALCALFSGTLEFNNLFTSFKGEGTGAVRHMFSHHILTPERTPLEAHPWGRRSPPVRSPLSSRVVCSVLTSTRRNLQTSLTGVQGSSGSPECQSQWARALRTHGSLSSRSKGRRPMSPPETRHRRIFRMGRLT

Amino acid sequences for entries named in this document (tags omitted). A change or cut given only in a name is not applied to a line headed by its entry.
UniProt P34906: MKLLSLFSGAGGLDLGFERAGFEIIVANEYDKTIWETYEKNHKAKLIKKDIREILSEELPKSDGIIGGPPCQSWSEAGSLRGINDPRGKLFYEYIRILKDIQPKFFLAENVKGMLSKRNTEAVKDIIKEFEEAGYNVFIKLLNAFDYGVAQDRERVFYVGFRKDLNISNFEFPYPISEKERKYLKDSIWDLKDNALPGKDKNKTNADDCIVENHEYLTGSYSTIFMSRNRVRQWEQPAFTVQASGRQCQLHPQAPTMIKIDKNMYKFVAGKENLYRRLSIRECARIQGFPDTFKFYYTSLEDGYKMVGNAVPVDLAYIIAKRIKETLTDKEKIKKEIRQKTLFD

“AGGCCT (double strand) [E. coli genomic DNA StuI site]” was tested, and the “activity on this sequence” value [1] was “active”.
In the case of “GCTTTTCTGTGACTGGTGAGGCCTCAACCAAGTCATTCTGAG / CTCAGAATGACTTGGTTGAGGCCTCACCAGTCACAGAAAGC [pUC2iStuI StuI sites in pST2]”, the “activity on this sequence” value [2] is reported as “active”.
